In PubChem BioAssay AID1224853 (National Center for Advancing Translational Sciences (NCATS), 2016):
Inconclusive means that the source gave no clear call. Such entries were picked first, then a sample of the others. A potency beside an inconclusive call is a rough fit, not a confirmed value. Active and inactive are the calls of the source. Calls follow the shape of the dose curve; as a rule, active = well fitted inhibition curve with a large enough effect; inconclusive = small, poorly fitted or top-dose-only effect; inactive = no such curve, though single readings can be large or run the other way.

test: Confirmation assay for measurement of the activity of small molecule inhibitors on Zika virus induced Caspase-3 activity in human astrocytoma cells; conditions: SNB-19 ZIKV-induced caspase-3/7, luminescence, 6 h; series mostly up to 46.1 µM; activity change, negative = inhibition: at the top concentration
Excerpt: National Center for Advancing Translational Sciences [NCATS] Johns Hopkins University School of Medicine Florida State University Assay Overview: Increase in the Caspase-3 activity indicates an activation of apoptosis cell death pathway caused by Zika virus infection in certain types of neuronal cells including human neural progenitor cells (hNPCs), astrocytes, and astrocytoma cell line (SNB-19). This cell-based caspase-3 activity assay measures the increased caspase-3 activity in the astrocytoma cell line (SNB-19) after a 6-hour Zika virus infection with a luminescence readout. A decrease in the luminescence signal in this assay by small molecule treatment indicates an inhibitory effect of that small molecule on the Zika virus induced caspase-3 activity that may correlate with its effect on reduction of Zika virus caused cell death.
Assay Protocol Summary: The medium for SNB-19 cells is composed of RPMI 1640 (ATCC, Cat.# 30-2001), 10% fetal bovine serum (FBS) (GE healthcare Life Sciences, Cat.# SH30071.03), and 1% Pen/Strep (Gibco, Cat.# 15140-122). A Caspase-Glo 3/7 assay kit (catalog number G8092; Promega, Madison, WI) was used to detect caspase-3 activity induced by Zika virus infection in human cells. The reagent mixture was reconstituted as described in the protocol from the manufacturer. Polystyrene tissue culture treated and PDL coated white plates were obtained from Greiner Bio-One (Monroe, NC). Cells were seeded in 384- or 1536-well assay plates and cultured at 37 C with 5% CO2 for 16 to 20 hours. The typical cell seeding density in the 1536-well plate assay is 250 cells/well in 3ul medium for SNB-19 cells in tissue culture treated plates. Compounds were added to cells and incubated for one hour before addition of ZIKV solution to cells (2 FFU/cell). After incubation at 37 C with 5% CO2 for 6 hours, the reagent mixture of Caspase-Glo 3/7 assay kit was added to each well, followed by incubation at room temperature for 30 minutes. The luminescence intensity of the assay plates was measured using a ViewLux plate reader (PerkinElmer). Data were normalized by using the cell-containing wells without ZIKV as a negative control (0% induction of caspase 3/7 activity) and wells containing ZIKV infected cells (Caspase-3 activity induced) as a positive control (100% induction of caspase 3 activity). The percentage inhibitions of the increased Caspase-3 activity by small molecule inhibitors were then calculated.

Question: Which Potency does the source give for `O=c1[nH]nc(Sc2ncc([N+](=O)[O-])s2)n1-c1ccc2c(c1)OCCO2` here?
Answer: Its Potency is inconclusive: 3.08 µM [inhibitor, single point].

Question: With `COc1ccc(/C=C/C(=O)Nc2ccccc2C(=O)O)cc1OC` as the compound, how does the Potency read?
Answer: Its Potency is inconclusive: 15.5 µM [inhibitor, single point].

Question: Which Potency does the source give for `CC(=O)OC(C)OC(=O)C(C)c1ccc(-c2ccccc2)c(F)c1` (stereo not given) here?
Answer: The Potency was inconclusive: 17.3 µM [inhibitor, single point].

Question: Which Potency does the source give for `CCOCCOC(=O)/C=C/c1ccc(OC)cc1` here?
Answer: The Potency was inconclusive: 24.5 µM [inhibitor, single point].

Question: Which Potency does the source give for `O=c1c(-c2ccc(O)cc2)coc2cc(O)ccc12` here?
Answer: Its Potency is inconclusive: 15.5 µM [inhibitor, partial curve].

Question: With `O=C1c2ccccc2C(=O)c2c1ccc(O)c2O` as the compound, how does the Potency read?
Answer: Its Potency is inconclusive: 27.5 µM [inhibitor, single point].

Question: With `COc1ccc(CC2=NN3C([C@@H](CCc4ccccc4)[C@@H](C)O)=NC(C)C3C(=O)N2)cc1OC` (stereo not given in full) as the compound, how does the “activity change, negative = inhibition” value read?
Answer: The value was inactive: 40.2%.

Question: For `CCCSc1ccc2nc(NC(=O)OC)[nH]c2c1`, which Potency is on record?
Answer: Its Potency is inconclusive: 21.8 µM [inhibitor, partial curve, poor fit].

Question: With `O=C(O)Cc1ccc(-c2ccccc2)cc1` as the compound, how does the “activity change, negative = inhibition” value read?
Answer: The value was inactive: -25.3%.

Question: For `Cc1c(C(=O)O)c(O)cc2c1C(=O)c1c(O)c([C@@H]3O[C@H](CO)[C@@H](O)[C@H](O)[C@H]3O)c(O)c(O)c1C2=O`, which Potency is on record?
Answer: Its Potency is inconclusive: 15.5 µM [inhibitor, partial curve, poor fit].

Question: Which Potency does the source give for `O=C(O)c1ccccc1Nc1cccc(C(F)(F)F)c1` here?
Answer: The Potency was inconclusive: 9.75 µM [inhibitor, partial curve].

Question: With `CCCCC1C(=O)N(c2ccccc2)N(c2ccc(O)cc2)C1=O` (stereo not given) as the compound, how does the “activity change, negative = inhibition” value read?
Answer: The value was inactive: 22.7%.

Question: For `COc1cccc2c1C(=O)c1c(O)c3c(c(O)c1C2=O)C[C@@](O)(C(=O)CO)C[C@@H]3O[C@H]1C[C@H](N)[C@H](O[C@@H]2CCCCO2)[C@H](C)O1`, which Potency is on record?
Answer: The Potency was inconclusive: 19.5 µM [inhibitor, single point].

Question: For `COc1ccc(C=CC(=O)Nc2ccccc2C(=O)O)cc1OC`, which Potency is on record?
Answer: Its Potency is inconclusive: 17.3 µM [inhibitor, single point].

Question: With `O=C1c2ccccc2-[n+]2ccc3c([nH]c4ccccc43)c21` as the compound, how does the Potency read?
Answer: Its Potency is inconclusive: 12.3 µM [inhibitor, partial curve, poor fit].

Question: With `Cc1[nH]c(C=C2C(=O)Nc3ccccc32)c(C)c1CCC(=O)O` as the compound, how does the “activity change, negative = inhibition” value read?
Answer: The value was inactive: 0.798%.

Question: For `O=c1cc(-c2ccccc2)oc2cc(O)cc(O)c12`, which Potency is on record?
Answer: The Potency was inconclusive: 7.74 µM [inhibitor, full curve, poor fit].

Question: Which Potency does the source give for `Nc1cc(C(F)(F)F)ccc1S` here?
Answer: Its Potency is inconclusive: 3.08 µM [inhibitor, full curve, poor fit].

Question: Which Potency does the source give for `N#CC1(c2ccc(NC(=O)c3cccnc3NCc3ccncc3)cc2)CCCC1` here?
Answer: Its Potency is inconclusive: 19.5 µM [inhibitor, single point].

Question: Which “activity change, negative = inhibition” value does the source give for `CN(C)c1ccc2cc(C(=O)N[C@@H](CCCN=C(N)CCl)C(=O)NCc3ccccc3)ccc2c1` here?
Answer: The value was inactive: -11.2%.

Question: For `Nc1c(S(=O)(=O)O)cc(Nc2ccc(Nc3nc(Cl)nc(Nc4ccc(S(=O)(=O)O)cc4)n3)c(S(=O)(=O)O)c2)c2c1C(=O)c1ccccc1C2=O`, which Potency is on record?
Answer: The Potency was inconclusive: 6.15 µM [inhibitor, partial curve].

Question: For `CCN1CCC(n2cc(CNc3cc(Cl)c4ncc(C#N)c(Nc5ccc(F)c(Cl)c5)c4c3)nn2)CC1`, which “activity change, negative = inhibition” value is on record?
Answer: The value was inactive: 1.61%.

Question: Which Potency does the source give for `N#C/C(=C\c1ccc(O)c(O)c1)C(=O)Nc1ccccc1` here?
Answer: The Potency was inconclusive: 17.3 µM [inhibitor, partial curve, poor fit].

Question: With `Nc1nc2ccc([N+](=O)[O-])cc2s1` as the compound, how does the Potency read?
Answer: The Potency was inconclusive: 50.1 µM [inhibitor, single point].

Question: For `C[C@@H](N)c1ccc(C(=O)Nc2ccnc3[nH]ccc23)cc1`, which “activity change, negative = inhibition” value is on record?
Answer: The value was inactive: -12%.

Question: With `CCN1/C(=C/C=C/c2sc3ccccc3[n+]2CC)Sc2ccccc21` as the compound, how does the “activity change, negative = inhibition” value read?
Answer: Its value is inactive: -7.85% [at 23.8 µM].

Question: For `CN1CC(=O)N/C1=N/C(=O)Nc1cccc(Cl)c1`, which Potency is on record?
Answer: Its Potency is active: 6.9 µM.

Question: With `CC(=O)Oc1cccc2c1C(=O)c1c(OC(C)=O)cc(C(=O)O)cc1C2=O` as the compound, how does the Potency read?
Answer: Its Potency is inconclusive: 17.3 µM [inhibitor, partial curve].

Question: For `Cc1cc(O)c2ccccc2c1O`, which “activity change, negative = inhibition” value is on record?
Answer: Its value is inactive: -11.1%.

Question: For `Cc1cccc(/C=C/c2ccccc2)n1`, which Potency is on record?
Answer: The Potency was active: 12.3 µM.

Question: For `O=C(O)c1cc([N+](=O)[O-])ccc1NCCCc1ccccc1`, which Potency is on record?
Answer: The Potency was active: 19.5 µM.

Question: For `CC(C)OC(=O)CCCC=CC[C@@H]1[C@H](C=C[C@@H](O)COc2cccc(C(F)(F)F)c2)[C@H](O)C[C@@H]1O`, which “activity change, negative = inhibition” value is on record?
Answer: Its value is inactive: 16.3%.

Question: For `Cc1oncc1C(=O)Nc1ccc(C(F)(F)F)cc1`, which Potency is on record?
Answer: The Potency was active: 3.08 µM.

Question: For `O=c1cc(-c2ccccc2)oc2cc(O)c(O)c(O)c12`, which Potency is on record?
Answer: Its Potency is inconclusive: 27.5 µM [inhibitor, single point].

Question: For `O=C1NC(=O)C(=Cc2ccc(-c3ccc(F)cc3)o2)S1`, which Potency is on record?
Answer: Its Potency is active: 13.8 µM.

Question: Which Potency does the source give for `CN1CCN(c2cc3c(nn2)Oc2ccccc2N3C)CC1` here?
Answer: The Potency was inconclusive: 15.1 µM [inhibitor, single point].

Question: For `CC(C(=O)O)c1ccc(C(=O)c2ccccc2)s1` (stereo not given), which Potency is on record?
Answer: The Potency was active: 8.69 µM.

Question: Which Potency does the source give for `O=c1c(-c2ccc(O)cc2)coc2cc(OC3O[C@H](CO)[C@H](O)[C@H](O)[C@H]3O)cc(O)c12` (stereo not given in full) here?
Answer: Its Potency is inconclusive: 30.8 µM [inhibitor, single point].

Question: For `N[C@H](CSC(c1ccccc1)(c1ccccc1)c1ccccc1)C(=O)O`, which “activity change, negative = inhibition” value is on record?
Answer: Its value is inactive: 14.3%.

Question: With `Cc1csc(NC(=O)c2sc3nc4c(c(C(F)(F)F)c3c2N)CCC4)n1` as the compound, how does the Potency read?
Answer: The Potency was inconclusive: 19.5 µM [inhibitor, partial curve].
